Patent publication US7435823B2, “Compounds and methods of use” (Amgen Inc., priority 2004, dated 2008)
Some entries share one result that the patent states for a list of compounds.

Protein sequences, listed by entry. Tags and fused reporters are not part of them. Residues count along the entry.
UniProt P08581, 25-1390: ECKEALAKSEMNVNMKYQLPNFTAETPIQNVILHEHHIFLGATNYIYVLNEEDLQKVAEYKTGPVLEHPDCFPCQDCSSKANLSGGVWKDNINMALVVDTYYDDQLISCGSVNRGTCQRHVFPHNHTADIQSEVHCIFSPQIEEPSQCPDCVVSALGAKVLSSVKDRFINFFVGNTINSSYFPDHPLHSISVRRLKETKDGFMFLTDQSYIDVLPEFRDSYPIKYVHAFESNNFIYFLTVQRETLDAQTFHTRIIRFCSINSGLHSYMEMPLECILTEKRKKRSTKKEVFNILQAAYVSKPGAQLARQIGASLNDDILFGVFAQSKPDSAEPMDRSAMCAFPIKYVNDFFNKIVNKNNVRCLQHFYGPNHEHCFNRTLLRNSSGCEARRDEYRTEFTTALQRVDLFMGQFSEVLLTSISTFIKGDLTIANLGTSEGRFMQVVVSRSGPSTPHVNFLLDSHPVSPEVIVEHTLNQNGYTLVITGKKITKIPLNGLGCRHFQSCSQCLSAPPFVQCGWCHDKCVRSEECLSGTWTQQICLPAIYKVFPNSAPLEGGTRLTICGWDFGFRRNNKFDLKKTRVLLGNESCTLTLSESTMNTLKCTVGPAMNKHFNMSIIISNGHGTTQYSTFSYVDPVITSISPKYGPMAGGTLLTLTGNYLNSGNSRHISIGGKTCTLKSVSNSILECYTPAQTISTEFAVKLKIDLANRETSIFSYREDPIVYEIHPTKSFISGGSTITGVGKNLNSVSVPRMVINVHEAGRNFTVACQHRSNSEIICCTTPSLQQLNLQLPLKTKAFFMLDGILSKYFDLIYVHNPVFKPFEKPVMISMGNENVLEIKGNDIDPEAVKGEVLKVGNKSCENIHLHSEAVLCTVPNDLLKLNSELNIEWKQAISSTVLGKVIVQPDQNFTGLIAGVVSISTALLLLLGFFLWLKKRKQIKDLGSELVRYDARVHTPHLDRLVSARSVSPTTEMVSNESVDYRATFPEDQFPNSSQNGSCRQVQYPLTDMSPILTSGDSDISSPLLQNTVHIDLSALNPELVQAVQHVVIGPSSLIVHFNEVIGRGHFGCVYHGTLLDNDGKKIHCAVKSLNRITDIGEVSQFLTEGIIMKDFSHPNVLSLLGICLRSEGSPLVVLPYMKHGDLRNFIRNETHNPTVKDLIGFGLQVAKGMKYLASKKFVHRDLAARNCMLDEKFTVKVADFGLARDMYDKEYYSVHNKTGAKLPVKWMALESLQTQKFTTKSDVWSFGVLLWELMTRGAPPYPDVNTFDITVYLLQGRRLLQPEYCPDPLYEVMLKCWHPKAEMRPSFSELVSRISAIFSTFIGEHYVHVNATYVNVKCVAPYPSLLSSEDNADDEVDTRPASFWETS
UniProt P16056, 25-1379: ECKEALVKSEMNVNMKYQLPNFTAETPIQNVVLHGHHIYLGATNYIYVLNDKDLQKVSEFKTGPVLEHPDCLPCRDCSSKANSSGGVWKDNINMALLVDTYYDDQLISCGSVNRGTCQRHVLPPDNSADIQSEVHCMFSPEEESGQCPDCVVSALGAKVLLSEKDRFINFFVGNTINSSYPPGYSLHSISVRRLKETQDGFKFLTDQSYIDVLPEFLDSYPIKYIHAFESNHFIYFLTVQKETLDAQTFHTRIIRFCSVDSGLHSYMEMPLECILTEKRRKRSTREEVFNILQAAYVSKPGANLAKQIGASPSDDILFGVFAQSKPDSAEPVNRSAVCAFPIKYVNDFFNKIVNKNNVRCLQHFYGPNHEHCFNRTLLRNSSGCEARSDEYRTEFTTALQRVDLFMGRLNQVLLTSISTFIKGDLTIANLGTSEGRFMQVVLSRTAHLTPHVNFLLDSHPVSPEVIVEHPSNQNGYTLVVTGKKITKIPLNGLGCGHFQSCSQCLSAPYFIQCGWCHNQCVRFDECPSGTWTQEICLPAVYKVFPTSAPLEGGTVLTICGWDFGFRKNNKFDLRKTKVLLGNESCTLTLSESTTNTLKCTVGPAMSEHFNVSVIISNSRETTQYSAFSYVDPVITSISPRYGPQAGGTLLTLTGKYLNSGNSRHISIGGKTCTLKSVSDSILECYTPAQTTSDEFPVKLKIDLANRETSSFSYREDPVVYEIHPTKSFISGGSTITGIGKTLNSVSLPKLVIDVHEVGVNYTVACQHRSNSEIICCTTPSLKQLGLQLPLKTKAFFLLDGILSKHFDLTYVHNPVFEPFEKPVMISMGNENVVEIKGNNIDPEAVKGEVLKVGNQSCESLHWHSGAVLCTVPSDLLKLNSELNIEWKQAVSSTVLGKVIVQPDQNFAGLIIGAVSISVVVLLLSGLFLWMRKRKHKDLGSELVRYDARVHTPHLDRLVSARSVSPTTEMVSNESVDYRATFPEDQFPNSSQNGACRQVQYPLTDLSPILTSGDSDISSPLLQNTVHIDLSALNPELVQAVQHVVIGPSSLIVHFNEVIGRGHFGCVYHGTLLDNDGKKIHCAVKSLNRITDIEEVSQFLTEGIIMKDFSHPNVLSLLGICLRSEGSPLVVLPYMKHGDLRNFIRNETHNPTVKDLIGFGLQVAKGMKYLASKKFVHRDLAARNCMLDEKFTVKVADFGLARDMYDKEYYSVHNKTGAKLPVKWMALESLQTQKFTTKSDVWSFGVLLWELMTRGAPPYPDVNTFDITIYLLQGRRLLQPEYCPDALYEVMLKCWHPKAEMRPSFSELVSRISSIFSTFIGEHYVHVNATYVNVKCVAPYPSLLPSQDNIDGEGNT

Assays:
c-Met [1] = target: T1, c-Met (Homo sapiens, UniProt P08581); assay: c-Met cell-based autophosphorylation assay, PC3 cells; settings: HGF-stimulated c-Met autophosphorylation
T1 construct: Hunan PC3 and mouse CT26 cells are available obtained from ATCC; host or cells: PC3 cells

c-Met [2] = target: T2, c-Met (Mus musculus, UniProt P16056); assay: c-Met cell-based autophosphorylation assay, CT26 cells; settings: HGF-stimulated c-Met autophosphorylation
T2 construct: Hunan PC3 and mouse CT26 cells are available obtained from ATCC; host or cells: CT26 cells

SMILES	IC50 (c-Met [1])	IC50 (c-Met [2])
CCOc1ncccc1C(=O)Nc1ccc2cc(Oc3ccnc4cc(OC)c(OC)cc34)ccc2c1 [Example 92, N-(6-((6,7-bis(methoxy)-4-quinolinyl)oxy)-2-naphthalenyl)-2-(ethyloxy)-3-pyridinecarboxamide]	< 1000 nM	< 1000 nM
COc1cc2nccc(Oc3ccc4cc(NC(=O)c5cccs5)ccc4c3F)c2cc1OC [Example 3, N-(6-((6,7-bis(methoxy)-4-quinolinyl)oxy)-5-fluoro-2-naphthalenyl)-2-thiophenecarboxamide]	< 1000 nM	< 1000 nM
COc1cc2c(Oc3ccc4cc(NC(=O)c5ccsc5)ccc4c3)ccnc2cc1OCCCN1CCOCC1 [Example 107, N-(6-((6-(methoxy)-7-((3-(4-morpholinyl)propyl)oxy)-4-quinolinyl)oxy)-2-naphthalenyl)-3-thiophenecarboxamide]	< 1000 nM	< 1000 nM
COc1cc2nccc(Oc3ccc4cc(NC(=O)c5ccccc5OC(F)(F)F)ccc4c3)c2cc1OC [Example 41, N-(6-((6,7-bis(methoxy)-4-quinolinyl)oxy)-2-naphthalenyl)-2-((trifluoromethyl)oxy)benzamide]	< 1000 nM	–
COc1cc2nccc(Oc3ccc4cc(NC(=O)c5cc(F)cc(F)c5)ccc4c3)c2cc1OC [Example 27, N-(6-((6,7-bis(methoxy)-4-quinolinyl)oxy)-2-naphthalenyl)-3,5-difluorobenzamide]	< 1000 nM	< 1000 nM
COc1cc2nccc(Oc3ccc4cc(NC(=O)c5ccc(C)s5)ccc4c3)c2cc1OC [Example 50, N-(6-((6,7-bis(methoxy)-4-quinolinyl)oxy)-2-naphthalenyl)-5-methyl-2-thiophenecarboxamide]	–	< 1000 nM
COc1cc2nccc(Oc3ccc4cc(NC(=O)c5cccc(F)c5F)ccc4c3F)c2cc1OC [Example 85, N-(6-((6,7-bis(methoxy)-4-quinolinyl)oxy)-5-fluoro-2-naphthalenyl)-2,3-difluorobenzamide]	< 1000 nM	< 1000 nM
COc1cc2c(Oc3ccc4cc(NC(=O)c5ccsc5)ccc4c3)ccnc2cc1OCCCN(C)C [Example 104, N-(6-((7-((3-(dimethylamino)propyl)oxy)-6-(methoxy)-4-quinolinyl)oxy)-2-naphthalenyl)-3-thiophenecarboxamide]	–	< 1000 nM
COc1cc2nccc(Oc3ccc4cc(NC(=O)c5cccnc5F)ccc4c3)c2cc1OC [Example 91, N-(6-((6,7-bis(methoxy)-4-quinolinyl)oxy)-2-naphthalenyl)-2-fluoro-3-pyridinecarboxamide]	< 1000 nM	< 1000 nM
COc1cc2c(Oc3ccc4cc(NC(=O)c5ccsc5)ccc4c3F)ccnc2cc1OCCCN(C)C [Example 105, N-(6-((7-((3-(dimethylamino)propyl)oxy)-6-(methoxy)-4-quinolinyl)oxy)-5-fluoro-2-naphthalenyl)-3-thiophenecarboxamide]	–	< 1000 nM
COc1cc2nccc(Oc3ccc4cc(NC(=O)c5sccc5C)ccc4c3)c2cc1OC [Example 51, N-(6-((6,7-bis(methoxy)-4-quinolinyl)oxy)-2-naphthalenyl)-3-methyl-2-thiophenecarboxamide]	–	< 1000 nM
COc1cc2nccc(Oc3ccc4cc(NC(=O)c5cscc5OC)ccc4c3)c2cc1OC [Example 46, N-(6-((6,7-bis(methoxy)-4-quinolinyl)oxy)-2-naphthalenyl)-4-(methoxy)-3-thiophenecarboxamide]	–	< 1000 nM
COc1cc2nccc(Oc3ccc4cc(NC(=O)c5cncn5C)ccc4c3)c2cc1OC [Example 70, N-(6-((6,7-bis(methoxy)-4-quinolinyl)oxy)-2-naphthalenyl)-1-methyl-1H-imidazole-5-carboxamide]	–	< 1000 nM
COc1cc2nccc(Oc3ccc4cc(NC(=O)OCc5ccccc5)ccc4c3)c2cc1OC [Example 76, phenylmethyl 6-((6,7-bis(methoxy)-4-quinolinyl)oxy)-2-naphthalenylcarbamate]	–	< 1000 nM
COc1cc2c(Oc3ccc4cc(NC(=O)c5cccs5)ccc4c3)ccnc2cc1OCCCN1CCOCC1 [Example 90, N-(6-((6-(methoxy)-7-((3-(4-morpholinyl)propyl)oxy)-4-quinolinyl)oxy)-2-naphthalenyl)-2-thiophenecarboxamide]	< 1000 nM	< 1000 nM
COc1cc2c(Oc3ccc4cc(NC(=O)c5ccsc5)ccc4c3F)ccnc2cc1OCCCN1CCOCC1 [Example 87, N-(5-fluoro-6-((6-(methoxy)-7-((3-(4-morpholinyl)propyl)oxy)-4-quinolinyl)oxy)-2-naphthalenyl)-3-thiophenecarboxamide]	< 1000 nM	< 1000 nM
CCNC(=O)Nc1ccc2c(F)c(Oc3ccnc4cc(OCCCN5CCOCC5)c(OC)cc34)ccc2c1 [Example 111]	< 1000 nM	< 1000 nM
COc1cc2nccc(Oc3ccc4cc(NC(=O)c5cccc(C#N)c5)ccc4c3)c2cc1OC [Example 26, N-(6-((6,7-bis(methoxy)-4-quinolinyl)oxy)-2-naphthalenyl)-3-cyanobenzamide]	< 1000 nM	< 1000 nM
COc1cc2nccc(Oc3ccc4cc(NC(=O)c5cccc6cccnc56)ccc4c3)c2cc1OC [Example 93, N-(6-((6,7-bis(methoxy)-4-quinolinyl)oxy)-2-naphthalenyl)-8-quinolinecarboxamide]	< 1000 nM	< 1000 nM

SMILES	IC50 (c-Met [1])	IC50 (c-Met [2])
COc1cc2nccc(Oc3ccc4cc(NC(=O)c5ccco5)ccc4c3)c2cc1OC [Example 53, N-(6-((6,7-bis(methoxy)-4-quinolinyl)oxy)-2-naphthalenyl)-2-furancarboxamide]	–	< 1000 nM
COc1cc2c(Oc3ccc4cc(NC(=O)c5ccccc5)ccc4c3)ccnc2cc1OCCN(C)C [Example 109, N-(6-((7-((2-(dimethylamino)ethyl)oxy)-6-(methoxy)-4-quinolinyl)oxy)-2-naphthalenyl)benzamide]	–	< 1000 nM
COc1cc2nccc(Oc3ccc4cc(NC(=O)C5CCCC5)ccc4c3)c2cc1OC [Example 25, N-(6-((6,7-bis(methoxy)-4-quinolinyl)oxy)-2-naphthalenyl)cyclopentanecarboxamide]	< 1000 nM	< 1000 nM
CCNC(=O)Nc1ccc2cc(Oc3ccnc4cc(OCCCN5CCOCC5)c(OC)cc34)ccc2c1 [Example 110]	–	< 1000 nM
COc1cc2nccc(Oc3ccc4c(C(=O)Nc5ccc(C(F)(F)F)cc5)cccc4c3)c2cc1OC [Example 115, 6-(6,7-dimethoxy-quinolin-4-yloxy)-naphthalene-1-carboxylix acid (4-trifluoromethyl-phenyl)-amide]	< 1000 nM	–
COc1cc2nccc(Oc3ccc4cc(NC(=O)c5cccc(C(F)(F)F)c5F)ccc4c3)c2cc1OC [Example 38, N-(6-((6,7-bis(methoxy)-4-quinolinyl)oxy)-2-naphthalenyl)-2-fluoro-3-(trifluoromethyl)benzamide]	< 1000 nM	< 1000 nM
COc1cc2nccc(Oc3ccc4cc(NC(=O)c5ccsc5)ccc4c3)c2cc1OC [Example 54, N-(6-((6,7-bis(methoxy)-4-quinolinyl)oxy)-2-naphthalenyl)-3-thiophenecarboxamide]	–	< 1000 nM
COc1cc2nccc(Oc3ccc4cc(NC(=O)c5cccc(Br)c5)ccc4c3)c2cc1OC [Example 64, N-(6-((6,7-bis(methoxy)-4-quinolinyl)oxy)-2-naphthalenyl)-3-bromobenzamide]	–	< 1000 nM
COc1cc2nccc(Oc3ccc4cc(NC(=O)C5CCCCC5)ccc4c3)c2cc1OC [Example 66, N-(6-((6,7-bis(methoxy)-4-quinolinyl)oxy)-2-naphthalenyl)cyclohexanecarboxamide]	–	< 1000 nM
COc1cc2nccc(Oc3ccc4cc(NC(=O)c5cccc(F)c5F)ccc4c3)c2cc1OC [Example 40, N-(6-((6,7-bis(methoxy)-4-quinolinyl)oxy)-2-naphthalenyl)-2,3-difluorobenzamide]	–	< 1000 nM
COc1cc2nccc(Oc3ccc4cc(NC(=O)Cc5cccs5)ccc4c3)c2cc1OC [Example 37, N-(6-((6,7-bis(methoxy)-4-quinolinyl)oxy)-2-naphthalenyl)-2-(2-thienyl)acetamide]	< 1000 nM	–
COc1cc2nccc(Oc3ccc4cc(NC(=O)c5ccccc5OC)ccc4c3)c2cc1OC [Example 1, N-(6-((6,7-bis(methoxy)-4-quinolinyl)oxy)-2-naphthalenyl)-2-(methoxy)benzamide]	–	< 1000 nM
COc1cc2c(Oc3ccc4cc(NC(=O)c5ccccc5OC)ccc4c3F)ccnc2cc1OCCCN1CCOCC1 [Example 9, N-{5-fluoro-6-[6-methoxy-7-(3-morpholin-4-yl-propoxy)-quinolin-4-yloxy]-naphthalen-2-yl}-2-methoxy-benzamide]	< 1000 nM	< 1000 nM
COC(=O)c1ccc2cc(Oc3ncnc4cc(OC)c(OC)cc34)ccc2c1 [Example 4, methyl 6-((6,7-bis(methoxy)-4-quinazolinyl)oxy)-2-naphthalenecarboxylate]	< 1000 nM	< 1000 nM
COc1cc2nccc(Oc3ccc4cc(NC(=O)c5cccnc5OC)ccc4c3F)c2cc1OC [Example 89, N-(6-((6,7-bis(methoxy)-4-quinolinyl)oxy)-5-fluoro-2-naphthalenyl)-2-(methoxy)-3-pyridinecarboxamide]	–	< 1000 nM
COc1cc2nccc(Oc3ccc4cc(NC(=O)c5ccccc5Cl)ccc4c3)c2cc1OC [Example 73, N-(6-((6,7-bis(methoxy)-4-quinolinyl)oxy)-2-naphthalenyl)-2-chlorobenzamide]	–	< 1000 nM
COc1cc2c(Oc3ccc4cc(NC(=O)c5ccccc5)ccc4c3)ccnc2cc1OCCN1CCCC1 [Example 108, N-(6-((6-(methoxy)-7-((2-(1-pyrrolidinyl)ethyl)oxy)-4-quinolinyl)oxy)-2-naphthalenyl)benzamide]	< 1000 nM	–
COc1cc2nccc(Oc3ccc4cc(NC(=O)c5cccc(NC(C)=O)c5)ccc4c3)c2cc1OC [Example 88, 3-(acetylamino)-N-(6-((6,7-bis(methoxy)-4-quinolinyl)oxy)-2-naphthalenyl)benzamide]	< 1000 nM	< 1000 nM
